PMC5996148
This is one part of the list.

Columns and labels:
Assay in all cases: protein microarray (ProtoArray v5.0), streptavidin-Alexa Fluor 647
Conditions in all cases: 3'-biotin; 20 mM Tris (pH 7.5), 5 mM MgCl2, 100 mM KCl, 0.1% Tween-20, A/T-rich and random oligonucleotide blockers; temperature not stated; high values mean tight binding
ORM2 (human) = system: ORM2 (human)
ORMDL2 (human) = system: ORMDL2 (human)
OSBPL1A (human) = system: OSBPL1A (human)
OSTbeta (human) = system: OSTbeta (human)
OTUB2 (human) = system: OTUB2 (human)
[1] = system: Olfactory receptor 3A1 (human)
Optineurin (human) = system: Optineurin (human)
[2] = system: Ornithine decarboxylase (human)
Osteocalcin (human) = system: Osteocalcin (human)
P2RX1 (human) = system: P2RX1 (human)
P2RXL1 (human) = system: P2RXL1 (human)
PAFAH1B2 (human) = system: PAFAH1B2 (human)
PAGE2 (human) = system: PAGE2 (human)
PAGE5 (human) = system: PAGE5 (human)
PALM2 (human) = system: PALM2 (human)
PANK1 (human) = system: PANK1 (human)
PANK4 (human) = system: PANK4 (human)
PAPOLA (human) = system: PAPOLA (human)
PARD6B (human) = system: PARD6B (human)
PARVG (human) = system: PARVG (human)

GGTGACAGGGGTATGGGGAGGGG [G4-2 biotinylated (Ct1)]
binding signal (ORM2 (human)): -0.38 z-score | binding signal (ORMDL2 (human)): -0.365 z-score | binding signal (OSBPL1A (human)): -0.393 z-score | binding signal (OSTbeta (human)): -0.385 z-score | binding signal (OTUB2 (human)): -0.38 z-score | binding signal [1]: -0.39 z-score | binding signal (Optineurin (human)): -0.396 z-score | binding signal [2]: -0.388 z-score | binding signal (Osteocalcin (human)): -0.366 z-score | binding signal (P2RX1 (human)): -0.362 z-score | binding signal (P2RXL1 (human)): -0.377 z-score | binding signal (PAFAH1B2 (human)): -0.402 z-score | binding signal (PAGE2 (human)): -0.397 z-score | binding signal (PAGE5 (human)): -0.396 z-score | binding signal (PALM2 (human)): -0.384 z-score | binding signal (PANK1 (human)): -0.379 z-score | binding signal (PANK4 (human)): -0.381 z-score | binding signal (PAPOLA (human)): -0.392 z-score | binding signal (PARD6B (human)): -0.364 z-score | binding signal (PARVG (human)): -0.397 z-score
